In US12698289B2, “Solid forms of pharmaceutically acceptable salts of (S)-(2-ethyl-5-fluoro-4-hydroxyphenyl)-1H-indazol-3-yl)-4,6-dihydropyrrolo[3,4-d]imidazol-5(1H)-yl)(3-hydroxypyrrolidin-1-yl)methanone as JAK inhibitors” (HENAN MEDINNO PHARMACEUTICAL TECHNOLOGY CO., LTD., priority 2019, dated 2026) one finds IC50 data, which are given here for 1 compound.

The test system of the experiment is human T cells. Put plainly: IL-2 induced human T cell proliferation assay (Celltiter Glo). The conditions noted are these: HT, 72 h, read-out: IC50 (nM), human T cell proliferation.

In the case of `C[C@@H]1CCN(C(=O)CC#N)C[C@@H]1N(C)c1ncnc2[nH]ccc12` [Tofacitinib], the IC50 amounted to 21.7 nM.
